In patent US9102588B2, “Fungicide N-cycloalkyl-N-bicyclic-carboxamide derivatives” (priority 2007, dated 2015):
Some results were stated once for a whole list of compounds, not compound by compound.

Experiments:
[1] = tested on: Pyrenophora teres; assay: In vivo test on Pyrenophora teres (barley net blotch); conditions: 500 ppm; barley plants sprayed 24 hours before contamination; grading 12 days after contamination vs control plants
[2] = tested on: Alternaria brassicae; assay: In vivo test on Alternaria brassicae (leaf spot of crucifers); conditions: 500 ppm; radish plants sprayed 24 hours before contamination; grading 6 to 7 days after contamination vs control plants
[3] = tested on: Mycosphaerella graminicola; assay: In vivo test on Mycosphaerella graminicola (wheat leaf spot); conditions: 500 ppm; wheat plants sprayed 24 hours before contamination; grading 21 to 28 days after contamination vs control plants
[4] = tested on: Puccinia recondita; assay: In vivo test on Puccinia recondita (brown rust); conditions: 500 ppm; wheat plants sprayed 24 hours before contamination; grading 10 days after contamination vs control plants
[5] = tested on: Sphaerotheca fuliginea; assay: In vivo test on Sphaerotheca fuliginea (powdery mildew); conditions: 500 ppm; gherkin plants sprayed 24 hours before contamination; grading 12 days after contamination vs control plants
[6] = tested on: Botrytis cinerea; assay: In vivo test on Botrytis cinerea (grey mould); conditions: 500 ppm; gherkin plants sprayed 24 hours before contamination; grading 5/7 days after contamination vs control plants

CCCCC1Cc2ccccc2C1N(C(=O)c1cn(C)nc1C(F)F)C1CC1 (centres unmarked) [Example 82]
at least 70%: good (at least 70%) or total protection [1] | good protection (at least 70%) [2]

Cn1cc(C(=O)N(C2CC2)C2c3ccccc3CC2Br)c(C(F)F)n1 (centres unmarked) [Example 81]
at least 70%: good (at least 70%) or total protection [1] | good protection (at least 70%) [2] | good (at least 70%) or total protection (% of efficacy) [3]

Cc1nn(C)c(F)c1C(=O)N(C1CC1)C1CCOc2ccc(Cl)cc21 (centres unmarked) [Example 28]
at least 70%: good (at least 70%) or total protection [1] | good protection (at least 70%) [2] | good (at least 70%) or total protection [4]

Cc1nn(C)c(F)c1C(=O)N(C1CC1)C1CCCc2ccccc21 (centres unmarked) [Example 15]
at least 70%: good (at least 70%) or total protection (% of efficacy) [5] | good (at least 70%) or total protection [1] | good (at least 70%) protection [6] | good (at least 70%) or total protection [4] | good (at least 70%) or total protection (% of efficacy) [3]

Cn1nc(C(F)(F)F)c(C(=O)N(C2CC2)C2CCc3c(Cl)cc(Cl)cc32)c1F (centres unmarked) [Example 43]
at least 70%: good (at least 70%) or total protection (% of efficacy) [5] | good (at least 70%) or total protection [1] | good protection (at least 70%) [2] | good (at least 70%) or total protection (% of efficacy) [3]

Cn1cc(C(=O)N(C2CC2)C2CCc3cccc(Cl)c32)c(C(F)F)n1 (centres unmarked) [Example 76]
at least 70%: good (at least 70%) or total protection (% of efficacy) [5] | good (at least 70%) or total protection [1] | good protection (at least 70%) [2] | good (at least 70%) protection [6] | good (at least 70%) or total protection (% of efficacy) [3]

Cn1nc(C(F)(F)F)c(C(=O)N(C2CC2)C2CCC(C)(C)c3ccccc32)c1F (centres unmarked) [Example 53]
at least 70%: good protection (at least 70%) [2] | good (at least 70%) or total protection [4] | good (at least 70%) or total protection (% of efficacy) [3]

Cc1nn(C)c(F)c1C(=O)N(C1CC1)C1CCc2c(Cl)ccc(Cl)c21 (centres unmarked) [Example 11]
at least 70%: good (at least 70%) or total protection [1] | good protection (at least 70%) [2] | good (at least 70%) or total protection [4]

Cc1nn(C)c(F)c1C(=S)N(C1CC1)C1CCc2c(Cl)cc(Cl)cc21 (centres unmarked) [Example 4]
at least 70%: good (at least 70%) or total protection [1] | good protection (at least 70%) [2] | good (at least 70%) or total protection [4]

CCc1nn(C)c(F)c1C(=O)N(C1CC1)C1CCCc2ccc(Br)cc21 (centres unmarked) [Example 54]
at least 70%: good (at least 70%) or total protection (% of efficacy) [5] | good (at least 70%) or total protection [1] | good (at least 70%) or total protection [4]

Cc1nc(C(F)(F)F)c(C(=O)N(C2CC2)C2CCc3c(C)cccc32)s1 (centres unmarked) [Example 153]
at least 70%: good protection (at least 70%) [2] | good (at least 70%) or total protection (% of efficacy) [3]

COc1ccc2c(c1)C(N(C(=O)c1c(C(F)(F)F)nn(C)c1F)C1CC1)CC2 (centres unmarked) [Example 48]
at least 70%: good (at least 70%) or total protection (% of efficacy) [5] | good (at least 70%) or total protection [1] | good protection (at least 70%) [2] | good (at least 70%) or total protection (% of efficacy) [3]

Cn1nc(C(F)(F)F)c(C(=O)N(C2CC2)C2CCc3cc(Cl)ccc32)c1F (centres unmarked) [Example 45]
at least 70%: good (at least 70%) or total protection (% of efficacy) [5] | good (at least 70%) or total protection [1] | good protection (at least 70%) [2] | good (at least 70%) protection [6] | good (at least 70%) or total protection (% of efficacy) [3]

Cc1cc(C)c2c(c1)C(N(C(=O)c1c(C(F)(F)F)nn(C)c1F)C1CC1)CCC2 (centres unmarked) [Example 41]
at least 70%: good (at least 70%) or total protection (% of efficacy) [5] | good protection (at least 70%) [2] | good (at least 70%) or total protection [4] | good (at least 70%) or total protection (% of efficacy) [3]

CC1Cc2ccccc2C1N(C(=O)c1cn(C)nc1C(F)F)C1CC1 (centres unmarked) [Example 84]
at least 70%: good (at least 70%) or total protection (% of efficacy) [5] | good (at least 70%) or total protection [1] | good (at least 70%) or total protection [4] | good (at least 70%) or total protection (% of efficacy) [3]

COc1nn(C)cc1C(=O)N(C1CC1)C1CCCCc2ccc(F)cc21 (centres unmarked) [Example 65]
at least 70%: good (at least 70%) or total protection (% of efficacy) [5] | good (at least 70%) or total protection [1] | good protection (at least 70%) [2] | good (at least 70%) or total protection [4] | good (at least 70%) or total protection (% of efficacy) [3]

Cn1nc(C(F)(F)F)c(C(=O)N(C2CC2)C2CCCCc3ccc(F)cc32)c1F (centres unmarked) [Example 47]
at least 70%: good (at least 70%) or total protection [1] | good protection (at least 70%) [2] | good (at least 70%) or total protection [4]

Cn1cc(C(=O)N(C2CC2)C2CCc3c(Cl)ccc(Cl)c32)c(C(F)F)n1 (centres unmarked) [Example 83]
at least 70%: good (at least 70%) or total protection [1] | good protection (at least 70%) [2] | good (at least 70%) or total protection (% of efficacy) [3]

Cn1cc(C(=O)N(C2CC2)C2CCc3cc(Cl)ccc32)c(C(F)F)n1 (centres unmarked) [Example 74]
at least 70%: good (at least 70%) or total protection (% of efficacy) [5] | good (at least 70%) or total protection [1] | good (at least 70%) protection [6] | good (at least 70%) or total protection (% of efficacy) [3]

Cn1cc(C(=O)N(C2CC2)C2CCCc3ccccc32)c(C(F)F)n1 (centres unmarked) [Example 87]
at least 70%: good (at least 70%) or total protection (% of efficacy) [5] | good (at least 70%) or total protection [1] | good (at least 70%) or total protection [4] | good (at least 70%) or total protection (% of efficacy) [3]

COc1ccc2c(c1)C(N(C(=O)c1c(C)nn(C)c1F)C1CC1)CC2 (centres unmarked) [Example 8]
at least 70%: good (at least 70%) or total protection (% of efficacy) [5] | good (at least 70%) or total protection [1] | good (at least 70%) or total protection [4] | good (at least 70%) or total protection (% of efficacy) [3]

Cn1cc(C(=O)N(C2CC2)C2CCc3ccccc32)c(C(F)(F)F)n1 (centres unmarked) [Example 133]
at least 70%: good (at least 70%) or total protection (% of efficacy) [5] | good (at least 70%) or total protection [1] | good (at least 70%) protection [6] | good (at least 70%) or total protection (% of efficacy) [3]

Cc1nn(C)c(F)c1C(=O)N(C1CC1)C1CCc2c(Cl)cc(Cl)cc21 (centres unmarked) [Example 3]
at least 70%: good (at least 70%) or total protection (% of efficacy) [5] | good (at least 70%) or total protection [1] | good protection (at least 70%) [2] | good (at least 70%) or total protection [4] | good (at least 70%) or total protection (% of efficacy) [3]

Cc1cccc2c1CCC2N(C(=O)c1c(C)nn(C)c1F)C1CC1 (centres unmarked) [Example 7]
at least 70%: good (at least 70%) or total protection (% of efficacy) [5] | good protection (at least 70%) [2] | good (at least 70%) or total protection [4] | good (at least 70%) or total protection (% of efficacy) [3]

Cc1nn(C)c(F)c1C(=O)N(C1CC1)C1CCc2ccccc21 (centres unmarked) [Example 6]
at least 70%: good (at least 70%) or total protection (% of efficacy) [5] | good (at least 70%) or total protection [1] | good (at least 70%) protection [6] | good (at least 70%) or total protection [4] | good (at least 70%) or total protection (% of efficacy) [3]

Cn1cc(C(=O)N(C2CC2)C2CCc3c(Cl)cc(Cl)cc32)c(C(F)F)n1 (centres unmarked) [Example 75]
at least 70%: good (at least 70%) or total protection (% of efficacy) [5] | good (at least 70%) or total protection [1] | good (at least 70%) or total protection [4] | good (at least 70%) or total protection (% of efficacy) [3]

CCc1nn(C)c(F)c1C(=S)N(C1CC1)C1CCc2cc(Cl)ccc21 (centres unmarked) [Example 56]
at least 70%: good (at least 70%) or total protection (% of efficacy) [5] | good (at least 70%) or total protection [1] | good protection (at least 70%) [2] | good (at least 70%) or total protection (% of efficacy) [3]

Cc1cccc2c1CCC2N(C(=O)c1cn(C)nc1C(F)F)C1CC1 (centres unmarked) [Example 79]
at least 70%: good (at least 70%) or total protection [1] | good protection (at least 70%) [2]

Cn1cc(C(=O)N(C2CC2)C2CCCCc3ccc(F)cc32)c(C(F)F)n1 (centres unmarked) [Example 73]
at least 70%: good (at least 70%) or total protection (% of efficacy) [5] | good (at least 70%) or total protection [1] | good (at least 70%) or total protection [4] | good (at least 70%) or total protection (% of efficacy) [3]

Cn1cc(C(=O)N(C2CC2)C2CCc3ccccc32)c(C(F)F)n1 (centres unmarked) [Example 78]
at least 70%: good (at least 70%) or total protection (% of efficacy) [5] | good (at least 70%) or total protection [1] | good (at least 70%) protection [6] | good (at least 70%) or total protection (% of efficacy) [3]

Cn1nc(C(F)(F)F)c(C(=O)N(C2CC2)C2CC(C)(C)c3ccccc32)c1F (centres unmarked) [Example 52]
at least 70%: good (at least 70%) or total protection (% of efficacy) [5] | good (at least 70%) or total protection [1] | good protection (at least 70%) [2] | good (at least 70%) or total protection (% of efficacy) [3]

Cn1nc(C(F)(F)F)c(C(=O)N(C2CC2)C2CCCc3ccc(Br)cc32)c1F (centres unmarked) [Example 46]
at least 70%: good (at least 70%) or total protection (% of efficacy) [5] | good (at least 70%) or total protection [1] | good (at least 70%) or total protection [4] | good (at least 70%) or total protection (% of efficacy) [3]

Cc1nn(C)c(F)c1C(=O)N(C1CC1)C1CCOc2ccccc21 (centres unmarked) [Example 25]
at least 70%: good (at least 70%) or total protection [1] | good protection (at least 70%) [2] | good (at least 70%) or total protection [4]

Cc1nn(C)c(F)c1C(=O)N(C1CC1)C1CCCc2ccc(Br)cc21 (centres unmarked) [Example 16]
at least 70%: good (at least 70%) or total protection (% of efficacy) [5] | good (at least 70%) or total protection [1] | good (at least 70%) protection [6] | good (at least 70%) or total protection [4] | good (at least 70%) or total protection (% of efficacy) [3]
